# Source: the supplement of paper PMC4604168 (melanoma cell lines)
# The other results are listed elsewhere or left out. Single values are uncertain, as repeats are few or missing.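 Imaging used 1,536-well plates; nuclei positive for cleaved PARP by antibody were divided by total DNA-stained nuclei to yield the apoptosis fraction. Doses for screening kept most cells viable, and cell lines differ markedly in resting and induced cleaved-PARP levels.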
# Legend:
# Assay in all cases: cleaved PARP positive nuclei fraction relative to DMSO control; melanoma cells; higher = more apoptosis
# Details in all cases: library dose: low library concentration; 72 h
# CBRC034 = tested on: CBRC034 (line from a melanoma biopsy)
# COLO792 = tested on: COLO792
# COLO800 = tested on: COLO800
# COLO829 = tested on: COLO829
# G361 = tested on: G361
# IPC-298 = tested on: IPC-298
# IST-MEL1 = tested on: IST-MEL1
# LB2518-MEL = tested on: LB2518-MEL
# LOXIMVI = tested on: LOXIMVI
# MEL-HO = tested on: MEL-HO
SMILES,cleaved PARP positive nuclei fraction (CBRC034) [%],cleaved PARP positive nuclei fraction (COLO792) [%],cleaved PARP positive nuclei fraction (COLO800) [%],cleaved PARP positive nuclei fraction (COLO829) [%],cleaved PARP positive nuclei fraction (G361) [%],cleaved PARP positive nuclei fraction (IPC-298) [%],cleaved PARP positive nuclei fraction (IST-MEL1) [%],cleaved PARP positive nuclei fraction (LB2518-MEL) [%],cleaved PARP positive nuclei fraction (LOXIMVI) [%],cleaved PARP positive nuclei fraction (MEL-HO) [%]
"NC1(c2ccc(-c3nc4ccn5c(=O)[nH]nc5c4cc3-c3ccccc3)cc2)CCC1 + N.N.[Cl][Pt][Cl] [cisplatin] (first compound 0.4 µM, partner dose 1.6 µM)",358,226,113,179,33.4,184,96.9,56.6,127,28.8
"N.N.[Cl][Pt][Cl] [cisplatin] + C=CCNC1=C2C[C@@H](C)C[C@H](OC)[C@H](O)[C@@H](C)/C=C(\C)[C@H](OC(N)=O)[C@@H](OC)/C=C\C=C(/C)C(=O)NC(=CC1=O)C2=O [Tanespimycin] (first compound 1.6 µM, partner dose 0.002 µM)",44.1,123,154,92.8,206,41.3,190,409,121,86.6
"C=C(c1ccc(C(=O)O)cc1)c1cc2c(cc1C)C(C)(C)CCC2(C)C [Bexarotene] + C[As](C)SC[C@H](NC(=O)CC[C@H](N)C(=O)O)C(=O)NCC(=O)O [Darinaparsin] (first compound 2 µM, partner dose 0.4 µM)",31.8,94.2,87.9,127,78.7,117,72.3,48.6,93.4,39.2
"N.N.[Cl][Pt][Cl] [cisplatin] + CC(=O)c1c(C)c2cnc(Nc3ccc(N4CCNCC4)cn3)nc2n(C2CCCC2)c1=O [palbociclib] (first compound 1.6 µM, partner dose 0.04 µM)",82.7,129,101,71.4,125,405,57,61.6,20.5,59.3
"O=C(/C=C/c1cccnc1)NCCCCC1CCN(C(=O)c2ccccc2)CC1 + Cn1cc(C2=C(c3cn(C4CCN(Cc5ccccn5)CC4)c4ccccc34)C(=O)NC2=O)c2ccccc21 [Enzastaurin] (first compound 0.01 µM, partner dose 0.8 µM)",1330,548,202,102,3770,401,158,388,24.3,83.2
"C[C@]12O[C@H](C[C@]1(O)CO)n1c3ccccc3c3c4c(c5c6ccccc6n2c5c31)CNC4=O [Lestaurtinib] + Cc1cc(Nc2cc(N3CCN(C)CC3)nc(/C=C/c3ccccc3)n2)n[nH]1 [ENMD2076] (first compound 0.004 µM, partner dose 0.04 µM)",120,134,92,89,72.5,91.8,130,214,257,113
"N.N.[Cl][Pt][Cl] [cisplatin] + CCCS(=O)(=O)Nc1ccc(F)c(C(=O)c2c[nH]c3ncc(Cl)cc23)c1F [PLX4720] (first compound 1.6 µM, partner dose 0.08 µM)",71,56.8,97.4,141,139,45.4,127,98.4,135,84.2
"Cn1cc(C2=C(c3cn(C4CCN(Cc5ccccn5)CC4)c4ccccc34)C(=O)NC2=O)c2ccccc21 [Enzastaurin] + CC(=O)c1c(C)c2cnc(Nc3ccc(N4CCNCC4)cn3)nc2n(C2CCCC2)c1=O [palbociclib] (first compound 0.8 µM, partner dose 0.04 µM)",35.4,93.6,19.2,110,87.9,87.7,146,56.2,80.9,60.8
"CN1CCN(c2ccc3nc(-c4c(N)c5c(F)cccc5[nH]c4=O)[nH]c3c2)CC1 [Dovitinib] + C[As](C)SC[C@H](NC(=O)CC[C@H](N)C(=O)O)C(=O)NCC(=O)O [Darinaparsin] (first compound 0.1 µM, partner dose 0.4 µM)",66.2,123,137,121,139,41.6,88.2,147,97.6,88.2
"CC(=O)O[C@@]12CO[C@@H]1C[C@H](O)[C@@]1(C)C(=O)[C@H](O)C3=C(C)[C@@H](OC(=O)[C@H](O)[C@@H](NC(=O)OC(C)(C)C)c4ccccc4)C[C@@](O)([C@@H](OC(=O)c4ccccc4)[C@H]21)C3(C)C [Docetaxel] + N.N.[Cl][Pt][Cl] [cisplatin] (first compound 0.0001 µM, partner dose 1.6 µM)",55.6,419,116,217,530,61.3,152,259,149,186
"C[C@]12O[C@H](C[C@]1(O)CO)n1c3ccccc3c3c4c(c5c6ccccc6n2c5c31)CNC4=O [Lestaurtinib] + CCCS(=O)(=O)Nc1ccc(F)c(C(=O)c2c[nH]c3ncc(Cl)cc23)c1F [PLX4720] (first compound 0.004 µM, partner dose 0.08 µM)",61.1,48.3,94.8,114,65.3,137,305,88,130,54.9
"Cn1cc(C2=C(c3cn(C4CCN(Cc5ccccn5)CC4)c4ccccc34)C(=O)NC2=O)c2ccccc21 [Enzastaurin] + COc1ccc(Cl)c(Nc2nc3ccccc3nc2NS(=O)(=O)c2cccc(NC(=O)C(C)(C)N)c2)c1 [XL147] (first compound 0.8 µM, partner dose 0.8 µM)",44,63.1,82.3,82.2,41.5,134,62.3,192,115,59.7
"Cn1cc(C2=C(c3cn(C4CCN(Cc5ccccn5)CC4)c4ccccc34)C(=O)NC2=O)c2ccccc21 [Enzastaurin] + NC(=O)c1ccc(N(C(N)=O)c2c(F)cccc2F)nc1-c1ccc(F)cc1F [VX702] (first compound 0.8 µM, partner dose 0.4 µM)",62.9,36.1,98,48.3,93.2,121,54.1,152,171,107
"Cn1cc(C2=C(c3cn(C4CCN(Cc5ccccn5)CC4)c4ccccc34)C(=O)NC2=O)c2ccccc21 [Enzastaurin] + CN1CCN(c2ccc3nc(-c4c(N)c5c(F)cccc5[nH]c4=O)[nH]c3c2)CC1 [Dovitinib] (first compound 0.8 µM, partner dose 0.1 µM)",83.3,61.1,95.1,76.7,99.4,118,157,57.2,173,113
"Cn1cnc2c(F)c(Nc3ccc(Br)cc3Cl)c(C(=O)NOCCO)cc21 [selumetinib] + Cn1cc(C2=C(c3cn(C4CCN(Cc5ccccn5)CC4)c4ccccc34)C(=O)NC2=O)c2ccccc21 [Enzastaurin] (first compound 0.015 µM, partner dose 0.8 µM)",37.7,119,96.4,123,121,201,64.7,177,178,56
"Cn1sc(=O)n(Cc2ccccc2)c1=O + C[C@]12O[C@H](C[C@]1(O)CO)n1c3ccccc3c3c4c(c5c6ccccc6n2c5c31)CNC4=O [Lestaurtinib] (first compound 0.4 µM, partner dose 0.004 µM)",126,92.7,51.8,173,100,42.6,182,60.1,128,75.9
"Cn1cc(C2=C(c3cn(C4CCN(Cc5ccccn5)CC4)c4ccccc34)C(=O)NC2=O)c2ccccc21 [Enzastaurin] + O=C(O)[C@@H]1[O][Sb](=[O])([O][Sb]2(=[O])[O][C@H]([C@H](O)CO)[C@H](O)[C@H](C(=O)O)[O]2)[O][C@H]([C@H](O)CO)[C@@H]1O [stibogluconate] (first compound 0.8 µM, partner dose 2 µM)",66.1,31.6,39.5,99.8,144,76,68.6,113,70.6,74.4
"Nc1nc(F)nc2c1ncn2[C@@H]1O[C@H](CO)[C@@H](O)[C@@H]1O [fludarabine] + C[As](C)SC[C@H](NC(=O)CC[C@H](N)C(=O)O)C(=O)NCC(=O)O [Darinaparsin] (first compound 0.2 µM, partner dose 0.4 µM)",117,41.4,198,96.2,136,243,67.1,108,124,115
"N.N.[Cl][Pt][Cl] [cisplatin] + Cn1c(Nc2ccc(C(F)(F)F)cc2)nc2cc(Oc3ccnc(-c4ncc(C(F)(F)F)[nH]4)c3)ccc21 [CHIR265] (first compound 1.6 µM, partner dose 0.08 µM)",231,83.1,95.3,187,127,208,60.6,52.8,78.2,78.1

# Complete entries from above. Order of values: cleaved PARP positive nuclei fraction (CBRC034) [%] | cleaved PARP positive nuclei fraction (COLO792) [%] | cleaved PARP positive nuclei fraction (COLO800) [%] | cleaved PARP positive nuclei fraction (COLO829) [%] | cleaved PARP positive nuclei fraction (G361) [%] | cleaved PARP positive nuclei fraction (IPC-298) [%] | cleaved PARP positive nuclei fraction (IST-MEL1) [%] | cleaved PARP positive nuclei fraction (LB2518-MEL) [%] | cleaved PARP positive nuclei fraction (LOXIMVI) [%] | cleaved PARP positive nuclei fraction (MEL-HO) [%]
# CN1CCN(c2ccc3nc(-c4c(N)c5c(F)cccc5[nH]c4=O)[nH]c3c2)CC1 [Dovitinib] + C[As](C)SC[C@H](NC(=O)CC[C@H](N)C(=O)O)C(=O)NCC(=O)O [Darinaparsin] (first compound 0.1 µM, partner dose 0.4 µM) is entered as 66.2 | 123 | 137 | 121 | 139 | 41.6 | 88.2 | 147 | 97.6 | 88.2
# N.N.[Cl][Pt][Cl] [cisplatin] + CCCS(=O)(=O)Nc1ccc(F)c(C(=O)c2c[nH]c3ncc(Cl)cc23)c1F [PLX4720] (first compound 1.6 µM, partner dose 0.08 µM) is entered as 71 | 56.8 | 97.4 | 141 | 139 | 45.4 | 127 | 98.4 | 135 | 84.2
